According to patent US20230312680A1:
These are yes or no findings as the source states them, for the method shown. Binding calls can cover weak binding; strength is not graded here. Ends that are not written are not given here.

B1: … (SEQ ID No 43) (peptide)
peptide: ALKARTVTF
B2: LNKQKVTF (SEQ ID No 44) (peptide)
peptide: LNKQKVTF
B3: … (SEQ ID No 45) (peptide)
peptide: VGREKKLAL
B4: … (SEQ ID No 46) (peptide)
peptide: DMKKAKEQL
B5: … (SEQ ID No 47) (peptide)
peptide: MPNLRSVDL
B6: … (SEQ ID No 48) (peptide)
peptide: DVKKKIKEV
B7: … (SEQ ID No 1) (peptide)
peptide: MIPTFTALL
B8: … (SEQ ID No 60) (peptide)
peptide: GLLSLTSTLYL
B9: … (SEQ ID No 61) (peptide)
peptide: YMVHIQVTL
B10: … (SEQ ID No 62) (peptide)
peptide: KVLGVNVML
B11: … (SEQ ID No 63) (peptide)
peptide: MMEEMIFNL
B12: … (SEQ ID No 64) (peptide)
peptide: FLDPDRHFL
B13: … (SEQ ID No 66) (peptide)
peptide: GLLQELSSI
B14: … (SEQ ID No 67) (peptide)
peptide: SLLLPSIFL
B15: … (SEQ ID No 68) (peptide)
peptide: KLFDTQQFL
B16: … (SEQ ID No 69) (peptide)
peptide: TTYEGSITV
B17: … (SEQ ID No 70) (peptide)
peptide: VLQGLLRSL
B18: … (SEQ ID No 2) (peptide)
peptide: TLLKALLEI
B19: … (SEQ ID No 71) (peptide)
peptide: YLEDTDRNL
B20: … (SEQ ID No 72) (peptide)
peptide: YLTDLQVSL
B21: … (SEQ ID No 73) (peptide)
peptide: FLIEELLFA
B22: … (SEQ ID No 75) (peptide)
peptide: KVVSVLYNV
B23: … (SEQ ID No 216) (peptide)
peptide: IMFDDAIERA
B24: … (SEQ ID No 217) (peptide)
peptide: VSSSLTLKV
B25: … (SEQ ID No 219) (peptide)
peptide: PLPRPGAVL
B26: … (SEQ ID No 220) (peptide)
peptide: RMTTQLLLL
B27: SLLDLYQL (SEQ ID No 221) (peptide)
peptide: SLLDLYQL
B28: … (SEQ ID No 222) (peptide)
peptide: ALMRLIGCPL
B29: … (SEQ ID No 3) (peptide)
peptide: ALIYNLVGI
B30: FAHHGRSL (SEQ ID No 223) (peptide)
peptide: FAHHGRSL
B31: … (SEQ ID No 224) (peptide)
peptide: SLPRFQVTL
B32: … (SEQ ID No 227) (peptide)
peptide: YTFRYPLSL
B33: … (SEQ ID No 228) (peptide)
peptide: RLWDWVPLA
B34: … (SEQ ID No 229) (peptide)
peptide: ISVPAKTSL
B35: … (SEQ ID No 231) (peptide)
peptide: SVTESTHHL
B36: … (SEQ ID No 232) (peptide)
peptide: TISSLTHEL
B37: … (SEQ ID No 234) (peptide)
peptide: GVATRVDAI
B38: … (SEQ ID No 236) (peptide)
peptide: SAIPFSMTL
B39: ALFKAWAL (SEQ ID No 4) (peptide)
peptide: ALFKAWAL
B40: … (SEQ ID No 241) (peptide)
peptide: RQPNILVHL
B41: … (SEQ ID No 242) (peptide)
peptide: STIPALHEI
B42: … (SEQ ID No 243) (peptide)
peptide: YASEGVKQV
B43: … (SEQ ID No 244) (peptide)
peptide: DTDSSVHVQV
B44: … (SEQ ID No 5) (peptide)
peptide: RLLDFINVL
B45: … (SEQ ID No 6) (peptide)
peptide: SLGKHTVAL
B46: … (SEQ ID No 7) (peptide)
peptide: ALQAFEFRV
B47: … (SEQ ID No 8) (peptide)
peptide: YLVTKVVAV
B48: … (SEQ ID No 9) (peptide)
peptide: VLLAGFKPPL
B49: … (SEQ ID No 284) (peptide)
peptide: KSLIKSWKK
B50: … (SEQ ID No 285) (peptide)
peptide: GTVNPTVGK
B51: … (SEQ ID No 286) (peptide)
peptide: TVAPPQGVVK
B52: … (SEQ ID No 287) (peptide)
peptide: RRIHTGEKPYK
B53: … (SEQ ID No 20) (peptide)
peptide: RMASPVNVK
B54: … (SEQ ID No 21) (peptide)
peptide: AVRKPIVLK
B55: … (SEQ ID No 22) (peptide)
peptide: SLKERNPLK
B56: … (SEQ ID No 23) (peptide)
peptide: GMMKGGIRK
B57: … (SEQ ID No 24) (peptide)
peptide: SMYYPLQLK
B58: … (SEQ ID No 26) (peptide)
peptide: RISEYLLEK
B59: … (SEQ ID No 27) (peptide)
peptide: VLYGPAGLGK
B60: … (SEQ ID No 28) (peptide)
peptide: KTYETNLEIKK
B61: … (SEQ ID No 30) (peptide)
peptide: ALEVAHRLK
B62: … (SEQ ID No 83) (peptide)
peptide: GTYAHTVNR
B63: … (SEQ ID No 84) (peptide)
peptide: KLQPAQTAAK
B64: … (SEQ ID No 85) (peptide)
peptide: VLLGSLFSRK
B65: … (SEQ ID No 86) (peptide)
peptide: VVLLGSLFSRK
B66: … (SEQ ID No 87) (peptide)
peptide: AVAPPTPASK
B67: … (SEQ ID No 88) (peptide)
peptide: VVHAVFALK
B68: … (SEQ ID No 89) (peptide)
peptide: RVAELLLLH
B69: … (SEQ ID No 90) (peptide)
peptide: KVAGERYVYK
B70: … (SEQ ID No 91) (peptide)
peptide: RSLRYYYEK
B71: … (SEQ ID No 93) (peptide)
peptide: KILEEHTNK
B72: … (SEQ ID No 94) (peptide)
peptide: ATFERVLLR
B73: … (SEQ ID No 95) (peptide)
peptide: QSMYYPLQLK
B74: … (SEQ ID No 98) (peptide)
peptide: LLQPPPLLAR
B75: … (SEQ ID No 99) (peptide)
peptide: KVVDRWNEK

Molecular target: HLA-B*08:01 (human)
Assay: b2m dissociation at 37 C; grade of mean half-life

binding, binds:
B1
B2
B3
B4
B5
B6

Molecular target: HLA-A*02:01 (human)
Assay: UV-ligand exchange, b2m ELISA; grade of exchange yield

binding, binds:
B7
B8
B9
B10
B11
B12
B13
B14
B15
B16
B17
B18
B19
B20
B21
B22
B23
B24
B25
B26
B27
B28
B29
B30
B31
B32
B33
B34
B35
B36
B37
B38
B39
B40
B41
B42
B43
B44
B45
B46
B47
B48

Molecular target: HLA-A*03:01 (human)
Assay: as above

binding, binds:
B49
B50
B51
B52
B53
B54
B55
B56
B57
B58
B59
B60
B61
B62
B63
B64
B65
B66
B67
B68
B69
B70
B71
B72
B73
B74
B75
